Assay results: patent US11116713B2, “Oral care compositions and methods” (priority 2018, dated 2021)
For at least one compound, name, drawing or mass did not settle the structure.

Test system: Streptococcus mutans
Experiment: Killing efficacy against Streptococcus mutans in vitro (cfu count after treatment)
Assay type: cell-based
Conditions: inoculum 2.71×10^4 cfu/ml; 200 μg/ml EGCG alone; FIG. 1
Method: Because the primary bacterium responsible for dental caries (cavities) is Streptococcus mutans, the killing efficacy of agmatine and EGCG, alone and in combination, was determined against Streptococcus mutans. Killing efficacy was measured in vitro using Streptococcus mutans cells grown in brain heart infusion (BHI) plates for at least 24-48 hours at 37° C. Each experiment was initiated by collecting an individual colony from the BHI plate and growning the colony overnight at 37° C. and 5% CO2 in BHI liquid media. Streptococcus mutans cells were then passaged 2 times in chemically defined media for Streptococcus mutans and grown overnight at 37° C. and 5% CO2. The absorbance at A600 of the culture was measured to determine the bacterial cell concentration of the inoculum. Once the desired bacterial concentration was reached, Streptococcus mutans inoculum was plated on cell culture plates previously prepared with a range of concentrations of EGCG alone, agmatine alone, or EGCG and agmatine in combination. The plates streaked with inoculum were incubated for at least 24 hours at 37° C. and 5% CO2. After incubation, the cells were transferred to sterile tubes, plated on BHI plate using an Autoplate 4000, and incubated for at least 36 hours at 37° C. Colonies were counted and colony forming units (cfu) were calculated as recommended by Autoplate 4000 guide. […]

## O=C(O[C@@H]1Cc2c(O)cc(O)cc2O[C@@H]1c1cc(O)c(O)c(O)c1)c1cc(O)c(O)c(O)c1 [EGCG, epigallocatechin gallate]
  bacterial concentration of Streptococcus mutans following treatment: 0.00×10° cfu/ml
